# Assay results from patent US20230201187A1, “USE OF NAD+ PRECURSORS, STING INHIBITORS, AND FXR AGONISTS FOR INHIBITING SARS-COV-2 (COVID-19)-INDUCED CYTOKINE RELEASE” (Georgetown University, priority 2020, published 2023).
# At least one structure is not confirmed: it was looked up by name or label, or the drawing left a doubt.
# System: mitochondrial function, cGAS-STING, Toll-like receptors, RIG-I-like receptors, inflammatory cytokines, and fibrosis
# Experiment: Mice receiving folic acid or lipopolysaccharide (Example 8)
# Assay type: in vivo
# Conditions: present-tense paper example
compound,measurement,value
"CC[C@H]1[C@@H](O)[C@@H]2[C@H](CC[C@]3(C)[C@@H]([C@H](C)CCC(=O)O)CC[C@@H]23)[C@@]2(C)CC[C@@H](O)C[C@@H]12 [obeticholic acid, 6α-ethyl-chenodeoxycholic acid]","one or more of mitochondrial function, cGAS-STING, Toll-like receptors, RIG-I-like receptors, inflammatory cytokines, and fibrosis",may module
